These are yes or no findings as the source states them, for the method shown. In cells and extracts the contact can be indirect. Some results given as binding are weak or reduced against the parent protein; the word gives no strength.
Experiments:
[1] = molecular target: lamin A/C (human (endogenous in A549, H1299 and HEK293T)) (UniProt P02545); assay: co-IP; anti-lamin A/C immunoprecipitation of endogenous proteins from A549 and H1299 lysates; Pierce IP lysis buffer, overnight at 4 °C, Dynabeads Protein G; blot for Nestin
Flag-tagged Nestin = Flag-tagged Nestin (UniProt P48681); assay: co-IP; anti-Flag immunoprecipitation from lysates of A549 and H1299 cells overexpressing Flag-Nestin; Pierce IP lysis buffer, overnight at 4 °C, Dynabeads Protein G; blot for lamin A/C; IgG as negative control

The chains behind the UniProt entries cited, without tags or fusion partners. Residues count along the entry.
UniProt P02545, residues 1-646: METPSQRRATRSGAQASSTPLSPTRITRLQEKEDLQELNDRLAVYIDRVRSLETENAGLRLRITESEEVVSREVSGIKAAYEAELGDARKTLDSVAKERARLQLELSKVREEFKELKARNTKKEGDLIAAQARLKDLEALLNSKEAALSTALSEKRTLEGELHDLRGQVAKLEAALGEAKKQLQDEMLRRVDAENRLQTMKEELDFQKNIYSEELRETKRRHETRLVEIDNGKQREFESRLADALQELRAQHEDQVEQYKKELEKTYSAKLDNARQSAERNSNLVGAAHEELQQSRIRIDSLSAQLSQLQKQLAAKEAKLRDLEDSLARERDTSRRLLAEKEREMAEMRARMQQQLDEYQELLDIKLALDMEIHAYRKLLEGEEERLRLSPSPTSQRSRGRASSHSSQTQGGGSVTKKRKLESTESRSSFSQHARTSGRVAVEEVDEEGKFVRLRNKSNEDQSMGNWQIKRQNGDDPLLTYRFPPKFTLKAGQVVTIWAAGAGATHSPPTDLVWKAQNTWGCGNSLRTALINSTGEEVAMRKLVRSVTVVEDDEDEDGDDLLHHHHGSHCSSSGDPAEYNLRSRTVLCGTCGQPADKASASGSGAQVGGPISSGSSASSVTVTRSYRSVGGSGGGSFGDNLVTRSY
UniProt P48681: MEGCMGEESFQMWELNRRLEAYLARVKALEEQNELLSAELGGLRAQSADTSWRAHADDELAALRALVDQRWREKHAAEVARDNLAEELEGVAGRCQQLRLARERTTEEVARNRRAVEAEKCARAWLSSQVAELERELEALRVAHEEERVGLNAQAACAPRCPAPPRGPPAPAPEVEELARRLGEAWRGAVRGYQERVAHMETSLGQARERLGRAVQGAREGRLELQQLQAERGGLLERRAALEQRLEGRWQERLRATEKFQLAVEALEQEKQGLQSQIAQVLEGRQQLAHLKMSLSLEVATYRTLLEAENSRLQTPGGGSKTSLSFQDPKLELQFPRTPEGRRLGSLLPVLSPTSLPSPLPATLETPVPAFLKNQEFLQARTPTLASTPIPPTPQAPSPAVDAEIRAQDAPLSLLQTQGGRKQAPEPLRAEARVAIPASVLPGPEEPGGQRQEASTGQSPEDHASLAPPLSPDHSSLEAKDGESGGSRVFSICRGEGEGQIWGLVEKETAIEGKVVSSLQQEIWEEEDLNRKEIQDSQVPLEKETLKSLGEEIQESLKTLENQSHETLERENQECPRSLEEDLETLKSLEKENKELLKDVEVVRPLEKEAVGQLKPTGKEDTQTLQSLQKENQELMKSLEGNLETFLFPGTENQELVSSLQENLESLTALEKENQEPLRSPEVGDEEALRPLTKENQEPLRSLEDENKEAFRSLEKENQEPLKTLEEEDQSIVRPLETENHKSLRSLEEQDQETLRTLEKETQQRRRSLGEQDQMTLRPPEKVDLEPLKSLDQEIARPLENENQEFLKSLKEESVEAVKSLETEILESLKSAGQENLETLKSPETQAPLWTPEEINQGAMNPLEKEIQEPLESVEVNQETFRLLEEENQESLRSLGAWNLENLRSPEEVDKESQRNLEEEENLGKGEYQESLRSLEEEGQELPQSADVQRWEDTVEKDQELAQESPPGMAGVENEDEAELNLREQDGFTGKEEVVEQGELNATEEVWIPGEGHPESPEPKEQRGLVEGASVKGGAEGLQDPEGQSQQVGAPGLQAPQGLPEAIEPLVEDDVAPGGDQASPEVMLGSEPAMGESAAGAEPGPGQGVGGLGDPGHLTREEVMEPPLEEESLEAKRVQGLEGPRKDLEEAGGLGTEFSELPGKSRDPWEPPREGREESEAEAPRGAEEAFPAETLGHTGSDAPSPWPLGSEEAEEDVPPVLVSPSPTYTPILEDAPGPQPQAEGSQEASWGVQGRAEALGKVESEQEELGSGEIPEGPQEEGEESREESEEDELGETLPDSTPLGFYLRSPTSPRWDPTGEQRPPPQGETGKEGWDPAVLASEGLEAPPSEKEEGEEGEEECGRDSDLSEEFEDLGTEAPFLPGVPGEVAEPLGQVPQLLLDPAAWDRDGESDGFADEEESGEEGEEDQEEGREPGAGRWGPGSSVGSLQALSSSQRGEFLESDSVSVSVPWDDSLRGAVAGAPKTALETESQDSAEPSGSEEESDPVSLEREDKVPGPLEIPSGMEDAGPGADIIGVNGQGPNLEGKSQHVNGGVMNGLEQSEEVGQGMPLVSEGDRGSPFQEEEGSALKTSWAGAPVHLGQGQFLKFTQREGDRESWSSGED

Row | Substance | binding [1] | binding (Flag-tagged Nestin)
1 | Nestin (endogenous) (from UniProt P48681 1-1621) | binds | 
2 | lamin A/C (from UniProt P02545 1-646) |  | binds

Source: paper PMC6127343
